In publication PMC6944118:
No constants are given. Whether binding was seen depends on the method and setting. Binding seen in cells or lysates may run through a third protein. Some binding calls cover weakened binding; strength is not graded here.

By UniProt entry, the sequences of proteins in these tests, tags left out.
UniProt O95714: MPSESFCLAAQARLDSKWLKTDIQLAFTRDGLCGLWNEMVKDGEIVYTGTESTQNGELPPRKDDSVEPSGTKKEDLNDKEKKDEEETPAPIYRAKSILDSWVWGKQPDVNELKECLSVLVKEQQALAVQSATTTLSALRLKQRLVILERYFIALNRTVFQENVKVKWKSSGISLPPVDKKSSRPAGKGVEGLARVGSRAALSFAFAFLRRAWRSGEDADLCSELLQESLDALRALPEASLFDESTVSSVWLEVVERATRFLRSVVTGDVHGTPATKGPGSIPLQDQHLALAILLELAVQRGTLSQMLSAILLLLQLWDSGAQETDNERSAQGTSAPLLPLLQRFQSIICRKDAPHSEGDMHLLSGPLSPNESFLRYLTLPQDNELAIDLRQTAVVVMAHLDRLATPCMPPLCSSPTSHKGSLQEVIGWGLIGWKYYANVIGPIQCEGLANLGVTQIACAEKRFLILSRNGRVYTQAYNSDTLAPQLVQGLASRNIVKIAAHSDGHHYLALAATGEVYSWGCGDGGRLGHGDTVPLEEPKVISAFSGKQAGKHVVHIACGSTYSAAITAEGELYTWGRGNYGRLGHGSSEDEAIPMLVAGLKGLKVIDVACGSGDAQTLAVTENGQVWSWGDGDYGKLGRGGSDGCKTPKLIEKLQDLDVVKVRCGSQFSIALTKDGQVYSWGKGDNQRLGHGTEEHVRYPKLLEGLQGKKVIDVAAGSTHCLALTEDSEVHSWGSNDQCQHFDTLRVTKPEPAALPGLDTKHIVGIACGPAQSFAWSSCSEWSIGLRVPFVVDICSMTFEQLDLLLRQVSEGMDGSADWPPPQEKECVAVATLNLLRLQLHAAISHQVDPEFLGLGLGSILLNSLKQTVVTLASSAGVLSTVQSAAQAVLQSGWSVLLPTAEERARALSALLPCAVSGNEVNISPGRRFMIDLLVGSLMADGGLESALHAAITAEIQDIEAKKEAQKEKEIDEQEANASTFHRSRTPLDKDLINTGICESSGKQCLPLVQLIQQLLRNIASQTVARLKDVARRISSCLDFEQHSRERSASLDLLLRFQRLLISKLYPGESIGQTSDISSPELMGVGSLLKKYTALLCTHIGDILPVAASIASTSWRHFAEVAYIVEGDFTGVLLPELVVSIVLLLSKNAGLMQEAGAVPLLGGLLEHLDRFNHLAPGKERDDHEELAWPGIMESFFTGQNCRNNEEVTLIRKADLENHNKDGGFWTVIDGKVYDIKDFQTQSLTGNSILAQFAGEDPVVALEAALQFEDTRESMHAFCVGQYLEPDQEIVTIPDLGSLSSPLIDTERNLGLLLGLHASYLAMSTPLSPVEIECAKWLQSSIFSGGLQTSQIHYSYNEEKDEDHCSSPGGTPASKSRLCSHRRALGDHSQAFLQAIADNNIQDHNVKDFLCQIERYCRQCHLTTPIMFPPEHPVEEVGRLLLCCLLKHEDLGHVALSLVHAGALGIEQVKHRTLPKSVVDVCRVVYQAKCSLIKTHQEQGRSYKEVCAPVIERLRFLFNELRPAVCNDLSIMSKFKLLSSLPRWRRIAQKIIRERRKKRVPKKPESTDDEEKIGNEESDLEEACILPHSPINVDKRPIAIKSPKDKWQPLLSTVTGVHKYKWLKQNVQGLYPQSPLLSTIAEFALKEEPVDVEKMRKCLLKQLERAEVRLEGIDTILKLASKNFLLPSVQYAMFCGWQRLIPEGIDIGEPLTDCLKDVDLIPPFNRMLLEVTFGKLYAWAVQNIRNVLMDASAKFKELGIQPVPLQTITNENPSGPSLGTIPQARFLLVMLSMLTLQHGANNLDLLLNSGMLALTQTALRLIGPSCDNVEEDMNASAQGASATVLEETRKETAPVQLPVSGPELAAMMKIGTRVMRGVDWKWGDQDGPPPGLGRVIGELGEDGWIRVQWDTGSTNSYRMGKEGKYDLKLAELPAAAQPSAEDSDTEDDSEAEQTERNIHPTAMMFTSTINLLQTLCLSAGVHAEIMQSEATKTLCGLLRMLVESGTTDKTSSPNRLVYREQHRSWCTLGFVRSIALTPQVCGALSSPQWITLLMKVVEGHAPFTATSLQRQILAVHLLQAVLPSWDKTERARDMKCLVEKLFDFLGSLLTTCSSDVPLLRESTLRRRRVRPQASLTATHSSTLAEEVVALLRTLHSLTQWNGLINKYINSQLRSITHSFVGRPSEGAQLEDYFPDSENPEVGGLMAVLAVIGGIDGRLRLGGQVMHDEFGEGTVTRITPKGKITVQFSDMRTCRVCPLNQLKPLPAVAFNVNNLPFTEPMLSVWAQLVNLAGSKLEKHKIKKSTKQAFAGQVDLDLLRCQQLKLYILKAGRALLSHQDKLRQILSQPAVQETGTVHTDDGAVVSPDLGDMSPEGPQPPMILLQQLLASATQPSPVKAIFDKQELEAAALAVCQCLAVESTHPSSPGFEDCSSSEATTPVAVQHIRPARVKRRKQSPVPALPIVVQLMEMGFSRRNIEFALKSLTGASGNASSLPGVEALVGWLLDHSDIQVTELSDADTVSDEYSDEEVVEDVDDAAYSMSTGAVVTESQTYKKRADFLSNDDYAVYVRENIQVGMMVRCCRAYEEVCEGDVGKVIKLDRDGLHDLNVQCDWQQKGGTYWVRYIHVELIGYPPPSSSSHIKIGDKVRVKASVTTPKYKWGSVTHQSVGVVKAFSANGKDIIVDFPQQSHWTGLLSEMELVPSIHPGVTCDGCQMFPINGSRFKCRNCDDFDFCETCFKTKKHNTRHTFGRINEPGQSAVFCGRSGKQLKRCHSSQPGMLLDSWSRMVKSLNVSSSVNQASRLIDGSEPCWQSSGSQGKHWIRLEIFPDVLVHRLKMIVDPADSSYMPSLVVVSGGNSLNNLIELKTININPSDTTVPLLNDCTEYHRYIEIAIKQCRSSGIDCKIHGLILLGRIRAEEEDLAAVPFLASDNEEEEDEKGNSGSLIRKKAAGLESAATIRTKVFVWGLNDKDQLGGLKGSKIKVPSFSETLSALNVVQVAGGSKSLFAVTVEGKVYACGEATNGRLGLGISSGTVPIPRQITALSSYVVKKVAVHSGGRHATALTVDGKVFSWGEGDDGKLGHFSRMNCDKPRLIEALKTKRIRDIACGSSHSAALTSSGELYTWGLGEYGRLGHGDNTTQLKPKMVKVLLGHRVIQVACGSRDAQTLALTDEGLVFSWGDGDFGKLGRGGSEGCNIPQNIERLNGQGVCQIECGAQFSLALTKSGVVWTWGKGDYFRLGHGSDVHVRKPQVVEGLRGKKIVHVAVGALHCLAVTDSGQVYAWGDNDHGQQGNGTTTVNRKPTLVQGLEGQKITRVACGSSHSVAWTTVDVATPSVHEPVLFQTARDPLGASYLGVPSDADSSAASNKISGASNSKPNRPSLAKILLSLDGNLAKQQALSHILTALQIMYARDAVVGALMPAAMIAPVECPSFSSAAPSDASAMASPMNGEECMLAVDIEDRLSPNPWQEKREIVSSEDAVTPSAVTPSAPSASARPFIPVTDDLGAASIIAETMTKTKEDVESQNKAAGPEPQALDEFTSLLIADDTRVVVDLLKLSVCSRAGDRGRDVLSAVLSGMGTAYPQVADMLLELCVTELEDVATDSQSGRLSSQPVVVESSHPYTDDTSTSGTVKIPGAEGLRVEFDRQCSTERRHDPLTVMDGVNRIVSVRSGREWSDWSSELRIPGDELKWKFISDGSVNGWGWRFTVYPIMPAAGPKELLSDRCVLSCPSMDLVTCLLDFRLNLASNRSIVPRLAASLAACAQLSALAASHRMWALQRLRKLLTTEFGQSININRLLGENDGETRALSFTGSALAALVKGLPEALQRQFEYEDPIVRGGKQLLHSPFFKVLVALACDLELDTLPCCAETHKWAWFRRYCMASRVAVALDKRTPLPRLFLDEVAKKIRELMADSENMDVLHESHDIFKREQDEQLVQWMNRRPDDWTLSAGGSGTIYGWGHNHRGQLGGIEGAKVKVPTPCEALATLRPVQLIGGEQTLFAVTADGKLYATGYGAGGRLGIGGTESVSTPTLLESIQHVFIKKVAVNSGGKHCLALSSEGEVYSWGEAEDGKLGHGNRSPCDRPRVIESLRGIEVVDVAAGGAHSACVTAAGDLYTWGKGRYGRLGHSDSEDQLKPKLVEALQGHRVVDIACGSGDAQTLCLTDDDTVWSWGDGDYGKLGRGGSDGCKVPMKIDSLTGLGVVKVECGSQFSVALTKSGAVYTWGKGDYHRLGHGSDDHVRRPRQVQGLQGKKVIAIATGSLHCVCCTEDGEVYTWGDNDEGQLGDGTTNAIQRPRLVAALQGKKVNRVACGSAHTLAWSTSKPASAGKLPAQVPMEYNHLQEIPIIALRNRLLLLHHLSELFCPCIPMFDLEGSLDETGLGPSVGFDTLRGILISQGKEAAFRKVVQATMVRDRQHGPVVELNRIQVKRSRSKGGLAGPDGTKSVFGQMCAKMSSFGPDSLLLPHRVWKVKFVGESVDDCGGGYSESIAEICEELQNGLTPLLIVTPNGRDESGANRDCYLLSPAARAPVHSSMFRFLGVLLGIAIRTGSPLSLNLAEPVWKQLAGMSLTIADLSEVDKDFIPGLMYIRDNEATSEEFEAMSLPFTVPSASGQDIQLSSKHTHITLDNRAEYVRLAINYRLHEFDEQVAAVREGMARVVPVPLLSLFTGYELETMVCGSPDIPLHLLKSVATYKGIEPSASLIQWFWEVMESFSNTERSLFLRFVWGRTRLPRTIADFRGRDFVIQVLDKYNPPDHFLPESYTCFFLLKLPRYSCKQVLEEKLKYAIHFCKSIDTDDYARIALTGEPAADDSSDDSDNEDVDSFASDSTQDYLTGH
UniProt Q96JN8: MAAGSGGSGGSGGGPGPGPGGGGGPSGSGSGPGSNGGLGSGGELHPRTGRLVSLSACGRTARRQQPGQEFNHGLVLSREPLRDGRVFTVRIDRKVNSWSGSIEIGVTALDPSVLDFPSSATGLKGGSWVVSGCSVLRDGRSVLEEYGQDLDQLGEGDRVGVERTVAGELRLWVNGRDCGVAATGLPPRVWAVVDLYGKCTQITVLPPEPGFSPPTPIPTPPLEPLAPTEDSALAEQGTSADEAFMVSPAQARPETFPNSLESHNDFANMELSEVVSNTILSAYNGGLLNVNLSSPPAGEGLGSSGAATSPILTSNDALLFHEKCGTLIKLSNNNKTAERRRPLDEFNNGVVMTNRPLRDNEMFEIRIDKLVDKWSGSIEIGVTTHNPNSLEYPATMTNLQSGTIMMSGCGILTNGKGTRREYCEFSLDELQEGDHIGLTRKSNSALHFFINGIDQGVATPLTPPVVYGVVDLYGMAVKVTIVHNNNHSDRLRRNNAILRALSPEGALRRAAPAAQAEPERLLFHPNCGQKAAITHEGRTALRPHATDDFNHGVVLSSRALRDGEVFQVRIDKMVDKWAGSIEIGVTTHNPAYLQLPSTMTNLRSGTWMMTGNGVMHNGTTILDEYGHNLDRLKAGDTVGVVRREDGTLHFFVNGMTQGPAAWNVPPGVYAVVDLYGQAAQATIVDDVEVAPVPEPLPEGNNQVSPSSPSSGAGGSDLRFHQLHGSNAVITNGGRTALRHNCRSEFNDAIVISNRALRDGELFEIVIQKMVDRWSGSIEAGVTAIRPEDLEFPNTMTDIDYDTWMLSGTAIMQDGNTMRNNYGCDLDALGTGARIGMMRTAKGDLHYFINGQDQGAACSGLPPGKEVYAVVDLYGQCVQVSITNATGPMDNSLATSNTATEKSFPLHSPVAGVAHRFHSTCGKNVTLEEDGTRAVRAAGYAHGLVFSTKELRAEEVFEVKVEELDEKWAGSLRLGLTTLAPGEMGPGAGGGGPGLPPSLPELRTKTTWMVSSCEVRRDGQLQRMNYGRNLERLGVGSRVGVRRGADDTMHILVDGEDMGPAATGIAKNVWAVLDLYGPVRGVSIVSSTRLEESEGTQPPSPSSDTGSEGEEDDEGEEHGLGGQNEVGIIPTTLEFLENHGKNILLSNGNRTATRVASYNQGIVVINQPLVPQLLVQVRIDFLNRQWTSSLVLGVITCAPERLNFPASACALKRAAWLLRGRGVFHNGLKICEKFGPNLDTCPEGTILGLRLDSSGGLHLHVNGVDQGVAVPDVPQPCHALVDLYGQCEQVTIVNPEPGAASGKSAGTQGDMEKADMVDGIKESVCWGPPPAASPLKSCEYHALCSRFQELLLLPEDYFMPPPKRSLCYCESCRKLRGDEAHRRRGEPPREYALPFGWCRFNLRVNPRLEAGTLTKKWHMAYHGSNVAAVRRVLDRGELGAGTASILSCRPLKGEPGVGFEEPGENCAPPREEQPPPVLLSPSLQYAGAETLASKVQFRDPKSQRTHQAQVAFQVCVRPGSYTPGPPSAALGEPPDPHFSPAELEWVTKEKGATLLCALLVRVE

Target: HERC2 (ubiquitin E3 ligase), endogenous (human (endogenous in U2OS, HEK293T, A549, H1299)) (UniProt O95714)
Test: co-IP; endogenous HERC2 precipitated with bvg3 antibody from U2OS cells transfected with Flag-MDM2 and p53-CFP for 24 h; untreated or bleomycin for the last 3 h; pre-immune serum as negative control; endogenous p53 also present

binding: binds
Substance: NEURL4 (neuralized E3 ubiquitin protein ligase 4), endogenous (from UniProt Q96JN8 1-1562)
